Source: the supplement of paper PMC8728848
Some of the results follow.

How the values were obtained:
Experiment in all cases: glycan array binding signal (z-score within array); higher = stronger binding
Conditions in all cases: glycan notation: IUPAC condensed, linker removed
[1] = biological target: Fuc(a1-2)[Gal(a1-3)]Gal(b1-4)GlcNAc(b1-2)Man(a1-3)[Fuc(a1-2)[Gal(a1-3)]Gal(b1-4)GlcNAc(b1-2)Man(a1-6)]Man(b1-4)GlcNAc(b1-4)[Fuc(a1-6)]GlcNAc
Outline: (§1)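 Glycan array data came from 3228 arrays in the Consortium for Functional Glycomics database, and only arrays with an available protein sequence were kept. Glycan names were put into IUPAC-condensed notation, and columns mapping to the same glycan were averaged. The binding signal is a within-array Z-score, averaged across arrays of one protein sequence run at different concentrations or buffers and across linkers. A negative Z-score can be read as non-binding.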

[2] = biological target: Fuc(a1-2)[Gal(a1-3)]Gal(b1-4)GlcNAc(b1-3)GalNAc
Outline: as §1

[3] = biological target: Fuc(a1-2)[Gal(a1-3)]Gal(b1-4)GlcNAc(b1-6)GalNAc
Outline: as §1

[4] = biological target: Fuc(a1-2)[Gal(a1-3)]Gal(b1-4)[Fuc(a1-3)]Glc
Outline: as §1

[5] = biological target: Fuc(a1-2)[Gal(a1-3)]Gal(b1-4)[Fuc(a1-3)]GlcNAc
Outline: as §1

[6] = biological target: Fuc(a1-2)[Gal(a1-3)]Gal(b1-4)[Fuc(a1-3)]GlcNAc(b1-3)GalNAc
Outline: as §1

[7] = biological target: Fuc(a1-2)[Gal(a1-4)]Gal(b1-4)GlcNAc
Outline: as §1

[8] = biological target: Fuc(a1-2)[GalNAc(a1-3)]Gal
Outline: as §1

[9] = biological target: Fuc(a1-2)[GalNAc(a1-3)]Gal(b1-3)GalNAc(a1-3)[Fuc(a1-2)]Gal(b1-4)GlcNAc
Outline: as §1

[10] = biological target: Fuc(a1-2)[GalNAc(a1-3)]Gal(b1-3)GalNAc(b1-3)Gal(a1-4)Gal(b1-4)Glc
Outline: as §1

[11] = biological target: Fuc(a1-2)[GalNAc(a1-3)]Gal(b1-3)GlcNAc
Outline: as §1

[12] = biological target: Fuc(a1-2)[GalNAc(a1-3)]Gal(b1-3)GlcNAc(b1-2)Man(a1-3)[Fuc(a1-2)[GalNAc(a1-3)]Gal(b1-3)GlcNAc(b1-2)Man(a1-6)]Man(b1-4)GlcNAc(b1-4)GlcNAc
Outline: as §1

[13] = biological target: Fuc(a1-2)[GalNAc(a1-3)]Gal(b1-3)GlcNAc(b1-2)Man(a1-3)[Fuc(a1-2)[GalNAc(a1-3)]Gal(b1-3)GlcNAc(b1-2)Man(a1-6)]Man(b1-4)GlcNAc(b1-4)[Fuc(a1-6)]GlcNAc
Outline: as §1

[14] = biological target: Fuc(a1-2)[GalNAc(a1-3)]Gal(b1-3)GlcNAc(b1-3)GalNAc
Outline: as §1

[15] = biological target: Fuc(a1-2)[GalNAc(a1-3)]Gal(b1-3)GlcNAc(b1-6)GalNAc
Outline: as §1

[16] = biological target: Fuc(a1-2)[GalNAc(a1-3)]Gal(b1-4)Glc
Outline: as §1

[17] = biological target: Fuc(a1-2)[GalNAc(a1-3)]Gal(b1-4)GlcNAc
Outline: as §1

[18] = biological target: Fuc(a1-2)[GalNAc(a1-3)]Gal(b1-4)GlcNAc(b1-2)Man
Outline: as §1

[19] = biological target: Fuc(a1-2)[GalNAc(a1-3)]Gal(b1-4)GlcNAc(b1-2)Man(a1-3)[Fuc(a1-2)[GalNAc(a1-3)]Gal(b1-4)GlcNAc(b1-2)Man(a1-6)]Man(b1-4)GlcNAc(b1-4)GlcNAc
Outline: as §1

[20] = biological target: Fuc(a1-2)[GalNAc(a1-3)]Gal(b1-4)GlcNAc(b1-2)Man(a1-3)[Fuc(a1-2)[GalNAc(a1-3)]Gal(b1-4)GlcNAc(b1-2)Man(a1-6)]Man(b1-4)GlcNAc(b1-4)[Fuc(a1-6)]GlcNAc
Outline: as §1

[21] = biological target: Fuc(a1-2)[GalNAc(a1-3)]Gal(b1-4)GlcNAc(b1-3)Gal(b1-4)GlcNAc
Outline: as §1

[22] = biological target: Fuc(a1-2)[GalNAc(a1-3)]Gal(b1-4)GlcNAc(b1-3)Gal(b1-4)GlcNAc(b1-3)Gal(b1-4)GlcNAc
Outline: as §1

[23] = biological target: Fuc(a1-2)[GalNAc(a1-3)]Gal(b1-4)GlcNAc(b1-3)GalNAc
Outline: as §1

[24] = biological target: Fuc(a1-2)[GalNAc(a1-3)]Gal(b1-4)GlcNAc(b1-3)[Fuc(a1-2)[GalNAc(a1-3)]Gal(b1-4)GlcNAc(b1-6)]GalNAc
Outline: as §1

[25] = biological target: Fuc(a1-2)[GalNAc(a1-3)]Gal(b1-4)GlcNAc(b1-6)GalNAc
Outline: as §1

[26] = biological target: Fuc(a1-2)[GalNAc(a1-3)]Gal(b1-4)[Fuc(a1-3)]GlcNAc
Outline: as §1

[27] = biological target: Fuc(a1-2)[GalNAc(a1-3)]Gal(b1-4)[Fuc(a1-3)]GlcNAc(b1-3)GalNAc
Outline: as §1

[28] = biological target: Fuc(a1-2)[GalNAc(a1-4)]Gal(b1-4)GlcNAc
Outline: as §1

[29] = biological target: Fuc(a1-2)[GalNAc(b1-3)]Gal
Outline: as §1

[30] = biological target: Fuc(a1-3)GlcNAc
Outline: as §1

[31] = biological target: Fuc(a1-3)[Gal(b1-4)]Glc6S
Outline: as §1

[32] = biological target: Fuc(a1-3)[Gal(b1-4)]GlcNAc
Outline: as §1

[33] = biological target: Fuc(a1-3)[Gal(b1-4)]GlcNAc(b1-2)Man
Outline: as §1

[34] = biological target: Fuc(a1-3)[Gal(b1-4)]GlcNAc(b1-2)Man(a1-3)[Fuc(a1-3)[Gal(b1-4)]GlcNAc(b1-2)Man(a1-6)]Man(b1-4)GlcNAc(b1-4)GlcNAc
Outline: as §1

[35] = biological target: Fuc(a1-3)[Gal(b1-4)]GlcNAc(b1-2)Man(a1-3)[Fuc(a1-3)[Gal(b1-4)]GlcNAc(b1-2)Man(a1-6)]Man(b1-4)GlcNAc(b1-4)[Fuc(a1-6)]GlcNAc
Outline: as §1

[36] = biological target: Fuc(a1-3)[Gal(b1-4)]GlcNAc(b1-3)Gal(b1-3)[Fuc(a1-4)]GlcNAc
Outline: as §1

[37] = biological target: Fuc(a1-3)[Gal(b1-4)]GlcNAc(b1-3)GalNAc
Outline: as §1

[38] = biological target: Fuc(a1-3)[Gal(b1-4)]GlcNAc(b1-4)Gal(b1-4)[Fuc(a1-3)]GlcNAc
Outline: as §1

[39] = biological target: Fuc(a1-3)[Gal(b1-4)]GlcNAc(b1-4)Gal(b1-4)[Fuc(a1-3)]GlcNAc(b1-4)Gal(b1-4)[Fuc(a1-3)]GlcNAc
Outline: as §1

[40] = biological target: Fuc(a1-3)[Gal(b1-4)]GlcNAc(b1-6)GalNAc
Outline: as §1

[41] = biological target: Fuc(a1-3)[Gal(b1-4)]GlcNAc(b1-6)[Gal(b1-3)GlcNAc(b1-3)]Gal(b1-4)Glc
Outline: as §1

[42] = biological target: Fuc(a1-3)[Gal(b1-4)]GlcNAc6S
Outline: as §1

[43] = biological target: Fuc(a1-3)[Gal3S(b1-4)]Glc
Outline: as §1

[44] = biological target: Fuc(a1-3)[Gal3S(b1-4)]GlcNAc
Outline: as §1

[45] = biological target: Fuc(a1-3)[Gal3S(b1-4)]GlcNAc6S
Outline: as §1

[46] = biological target: Fuc(a1-3)[GalNAc(b1-4)]GlcNAc
Outline: as §1

[47] = biological target: Fuc(a1-3)[GalNAc(b1-4)]GlcNAc6S
Outline: as §1

[48] = biological target: Fuc(a1-4)GlcNAc
Outline: as §1

[49] = biological target: Fuc(b1-3)GlcNAc
Outline: as §1

[50] = biological target: Gal(a1-2)Gal
Outline: as §1

[51] = biological target: Gal(a1-3)Gal
Outline: as §1

[52] = biological target: Gal(a1-3)Gal(b1-3)GlcNAc
Outline: as §1

[53] = biological target: Gal(a1-3)Gal(b1-3)GlcNAc(b1-2)Man
Outline: as §1

[54] = biological target: Gal(a1-3)Gal(b1-3)GlcNAc(b1-2)Man(a1-3)[Gal(a1-3)Gal(b1-3)GlcNAc(b1-2)Man(a1-6)]Man(b1-4)GlcNAc(b1-4)GlcNAc
Outline: as §1

[55] = biological target: Gal(a1-3)Gal(b1-3)GlcNAc(b1-3)GalNAc
Outline: as §1

[56] = biological target: Gal(a1-3)Gal(b1-3)GlcNAc(b1-6)GalNAc
Outline: as §1

[57] = biological target: Gal(a1-3)Gal(b1-3)[Fuc(a1-4)]GlcNAc(b1-2)Man(a1-3)[Gal(a1-3)Gal(b1-3)[Fuc(a1-4)]GlcNAc(b1-2)Man(a1-6)]Man(b1-4)GlcNAc(b1-4)GlcNAc
Outline: as §1

[58] = biological target: Gal(a1-3)Gal(b1-4)Glc
Outline: as §1

[59] = biological target: Gal(a1-3)Gal(b1-4)GlcNAc
Outline: as §1

[60] = biological target: Gal(a1-3)Gal(b1-4)GlcNAc(b1-2)Man
Outline: as §1

B1: Blon2355mut (Bifidobacterium longum) (protein)
chain: MVQEPTLEWHVIPEPTNVEPLVGTCSLPLSGTVVEQRGADDAEAVFARQLVDDIKRVCGGRWQVASGEVQREVTLRTSPSLDDWSYVLEVSPDGVVITGSGFEGVRDGVQTLRQIIRQIGLTIPCMVIRDRPAFSTRGYYLDVTRGRVPSMAWLKSWVDRLCFYKYNQFQLYIEHTFQFNGLSEVWRGADPLTSSDILELDSYCAARGIELVPSVSTFGHHYTALRTRQLRDLGEFPEDADRPFSLIERMTHHTLNITDERSYEFSTSLIDELMPLFRSRKFNICANETFDLGKGRSKQESAKRGVGAMYADFVERLCRHVDDRGHDVMVWADVALEHPEIIDTLPKNITWLNWQYEPNVDDGTTAALADAGATQMVCPAVWCWNALIPRIDDAWNNITRMARHGRAHDVSGMLVTDWGDFGHVNDPRMSVPGMIFGAQQSWNPDAELSEVDMLSRISTIEYGDHTGSVVGALRGASAKGGFSWSDLVTYLELDDGRGGCNTEIVRVMGCLEAYRNDLPQSGQARLADARVSMLRTLRDSILAGRELNGKLDDAAKDITQLLRVAGDPSSAAVWSLAIDGQRLLNRVGLALLAAHGVVRQDEAGIDAAKLADELECWTEQYSRLWHEVSRQSELARIQHVVWRAADVLRSI
glycan array binding signal (z-score) [1]: -1.19 | glycan array binding signal (z-score) [2]: 0.081 | glycan array binding signal (z-score) [3]: -0.596 | glycan array binding signal (z-score) [4]: -1.04 | glycan array binding signal (z-score) [5]: 0.299 | glycan array binding signal (z-score) [6]: -0.439 | glycan array binding signal (z-score) [7]: 1.85 | glycan array binding signal (z-score) [8]: -0.845 | glycan array binding signal (z-score) [9]: -0.476 | glycan array binding signal (z-score) [10]: 0.019 | glycan array binding signal (z-score) [11]: -0.528 | glycan array binding signal (z-score) [12]: -0.464 | glycan array binding signal (z-score) [13]: -0.814 | glycan array binding signal (z-score) [14]: -0.537 | glycan array binding signal (z-score) [15]: -0.246 | glycan array binding signal (z-score) [16]: -0.407 | glycan array binding signal (z-score) [17]: -0.374 | glycan array binding signal (z-score) [18]: -0.963 | glycan array binding signal (z-score) [19]: 0.167 | glycan array binding signal (z-score) [20]: 0.709 | glycan array binding signal (z-score) [21]: -0.641 | glycan array binding signal (z-score) [22]: 0.661 | glycan array binding signal (z-score) [23]: -0.358 | glycan array binding signal (z-score) [24]: -0.012 | glycan array binding signal (z-score) [25]: 0.218 | glycan array binding signal (z-score) [26]: -0.853 | glycan array binding signal (z-score) [27]: 0.29 | glycan array binding signal (z-score) [28]: 0.989 | glycan array binding signal (z-score) [29]: 0.146 | glycan array binding signal (z-score) [30]: 0.518 | glycan array binding signal (z-score) [31]: 1.49 | glycan array binding signal (z-score) [32]: 0.254 | glycan array binding signal (z-score) [33]: -0.693 | glycan array binding signal (z-score) [34]: -0.38 | glycan array binding signal (z-score) [35]: -0.128 | glycan array binding signal (z-score) [36]: -0.794 | glycan array binding signal (z-score) [37]: -0.3 | glycan array binding signal (z-score) [38]: 0.072 | glycan array binding signal (z-score) [39]: -0.166 | glycan array binding signal (z-score) [40]: -0.427 | glycan array binding signal (z-score) [41]: -0.166 | glycan array binding signal (z-score) [42]: 0.994 | glycan array binding signal (z-score) [43]: -0.089 | glycan array binding signal (z-score) [44]: 1.44 | glycan array binding signal (z-score) [45]: 0.088 | glycan array binding signal (z-score) [46]: 3.72 | glycan array binding signal (z-score) [47]: 0.203 | glycan array binding signal (z-score) [48]: -0.82 | glycan array binding signal (z-score) [49]: -1.07 | glycan array binding signal (z-score) [50]: -0.108 | glycan array binding signal (z-score) [51]: -0.729 | glycan array binding signal (z-score) [52]: -1.19 | glycan array binding signal (z-score) [53]: 2.29 | glycan array binding signal (z-score) [54]: 0.57 | glycan array binding signal (z-score) [55]: -0.884 | glycan array binding signal (z-score) [56]: -1 | glycan array binding signal (z-score) [57]: -0.814 | glycan array binding signal (z-score) [58]: -0.136 | glycan array binding signal (z-score) [59]: -0.086 | glycan array binding signal (z-score) [60]: 0.209
